Laboratory results reported in article PMC8718910.
Results are given in words; binding and its absence hold for the method and conditions named. Binding seen in cells or lysates may run through a third protein. Where a sequence is shown, tags or fusion partners need not be part of it.

Biological target: T1, rat nucleosome assembly protein 1 like 5 (rNap1l5-Flag) (rat) (UniProt Q5PPG6)
T1 sequence: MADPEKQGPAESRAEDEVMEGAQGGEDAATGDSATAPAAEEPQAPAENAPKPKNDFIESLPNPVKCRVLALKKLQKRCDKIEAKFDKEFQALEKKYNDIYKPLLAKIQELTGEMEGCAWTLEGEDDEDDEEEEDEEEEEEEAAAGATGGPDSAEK
Assay: co-IP; HEK293T cells co-transfected with the plasmids; IP buffer 50mM Tris-HCl (pH 8.0), 150mM NaCl, 2mM EDTA, 1% NP-40, 5% glycerol; 1 μg antibody and protein A/G-agarose beads at 4°C overnight; blotted with the indicated primary antibodies

- binding: no binding
Substance: rat SDA1 domain containing 1 (SDAD1-HA) (from UniProt Q5XIQ5 1-686)
